These are yes or no findings as the source states them, for the method shown. In cells and extracts the contact can be indirect.
Legend:
[1] = target: Bag6 protein (Bag6 subunit of the BAG6 complex) (human (endogenous in HepG2)) (UniProt P46379)
[2] = target: ubiquilin-2 (human (endogenous in HepG2)), Q9UHD9; experiment: co-IP; co-immunoprecipitation of endogenous ubiquilins from HepG2 fractions, under identical conditions to those used to recover the BAG6 complex (Fig. S5A,B); conditions: remark: other sources report otherwise

B1: OMP25 (protein, UniProt P57105 1-145)
chain: MNGRVDYLVTEEEINLTRGPSGLGFNIVGGTDQQYVSNDSGIYVSRIKENGAAALDGRLQEGDKILSVNGQDLKNLLHQDAVDLFRNAGYAVSLRVQHRLQVQNGPIGHRGEGDPSGIPIFMVLVPVFALTMVAAWAFMRYRQQL
binding [1]: no binding

B2: OMP25, P57105 1-145 (protein)
chain: MNGRVDYLVTEEEINLTRGPSGLGFNIVGGTDQQYVSNDSGIYVSRIKENGAAALDGRLQEGDKILSVNGQDLKNLLHQDAVDLFRNAGYAVSLRVQHRLQVQNGPIGHRGEGDPSGIPIFMVLVPVFALTMVAAWAFMRYRQQL
binding [2]: no binding
